In patent publication US20170128412A1, “SYSTEM AND METHOD FOR IMPROVED BLOOD CIRCULATION AND MAINTAINING MITOCHONDRIAL ENERGY PRODUCTION” (priority 2015, published 2017):

Assay: Linoleate peroxidative reaction inhibition (AAPH, linoleate micellar solution)
Assay type: biochemical
Details: specimen 25 μM; one hour, room temperature
Protocol: Chart 4 indicates the linoleate peroxidative reaction inhibition action of tocotrienol, a-tocopherol, and Coenzyme Q10. The linoleate micellar solution comprised 300mM linoleate, 5 mM 2,2′-Azobis(2-amidinopropane) dihydrochloride (AAPH), and a specimen (tocotrienol, α-tocopherol, or Coenzyme Q10) dissolved in 0.3% Lubrol Px—20 mM sodium phosphate buffer (pH 7.4). The reaction composition reacted at room temperature for one hour, and then 0.5 ml of methanol was added to the composition, and then 2.0 ml of 70% methanol was added to the composition. The absorbance measurement was conducted at 234 nm.

| Molecule | Absorbance (234 nm) |
| --- | --- |
| Cc1c(C)c2c(c(C)c1O)CC[C@@](C)(CCC[C@H](C)CCC[C@H](C)CCCC(C)C)O2 [α-Tocopherol, α-tocopherol] | 1.26 |
| tocotrienol | 1.26 |
| COC1=C(OC)C(=O)C(C/C=C(\C)CC/C=C(\C)CC/C=C(\C)CC/C=C(\C)CC/C=C(\C)CC/C=C(\C)CC/C=C(\C)CC/C=C(\C)CC/C=C(\C)CCC=C(C)C)=C(C)C1=O [Coenzyme Q10, coenzyme Q10] | 2.17 |
